No dose or concentration is given here for some results.
System: Δ^5- and Δ^8-desaturases
Assay: Yeast cell transformed with both Δ^5- and Δ^8-desaturase genes (pYFAT4 + pYX232-541) fed fatty acid substrates, GC
Type: cell-based, Saccharomyces cerevisiae
Settings: for Fatty acid uptake: overnight culture at 28° C.
Text: The cDNA portion of pJW541 (Wallis and Browse, Arch. Biochem. Biophys. 365:307-316, 1999) containing the Euglena Δ^8-desaturase was excised from that plasmid with the restriction enzymes EcoRI and SpeI. The purified DNA fragment representing the insert was ligated into the yeast expression vector pYX232 (R&D Systems, Inc.) that had been prepared by digestion with EcoRI and NheI, to give compatible sticky ends. (Plasmid pYX232 carries the marker conferring yeast prototrophy for tryptophan (TRP1 mutation), and uses the triose phosphate isomerase (TPI) promoter for constitutive expression of the inserted DNA.) The resulting plasmid, pYX232-541, was introduced into the Saccharomyces cerevisiae strain already harboring the Δ^5-desaturase (pYFAT4; Watts and Browse, Arch. Biochem. Biophys. 362:175-182, 1999) plasmid that confers yeast prototrophy for uracil using a lithium acetate transformation procedure (Invitrogen). Transformants were selected simultaneously for uracil and tryptophan prototrophy. Selected colonies arising after the transformation were inoculated into yeast minimal medium that also lacked both uracil and tryptophan.
For analysis of activity, separate cultures were supplemented with one of three fatty acid substrates provided as sodium salts as described (Wallis and Browse, Arch. Biochem. Biophys. 365:307-316, 1999). After overnight culture at 28° C., the cultures were harvested by centrifugation and washed. Fatty acid methyl esters were prepared using the standard methods described in Miguel and Browse J. Biol. Chem. 267:1502-1509, 1992.

Structure (SMILES) | 20-carbon fatty acid level of the total cellular fatty acid | Fatty acid uptake
CCCCCCCCC=CCCCCCCCCCC(=O)O [20:1Δ^11] | 13% | 13 mass percent of whole cell fatty acids
CCCCCC=CCC=CCCCCCCCCCC(=O)O [20:2Δ^11,14] | 21% | 21 mass percent of whole cell fatty acids
CCC=CCC=CCC=CCCCCCCCCCC(=O)O [20:3Δ^11,14,17] | 37% | 37 mass percent of whole cell fatty acids

Reference: patent publication US10351871B2, “Desaturases and methods of using them for synthesis of polyunsaturated fatty acids” (Washington State University, priority 1998, dated 2019)
